Publication PMC2816663
No constants are given. Whether binding was seen depends on the method and setting. Binding seen in cells or lysates may run through a third protein. Some entries that bind do so weakly or less than the wild type.

Protein sequences, listed by entry. Tags and fused reporters are not part of them.
UniProt Q9NV56: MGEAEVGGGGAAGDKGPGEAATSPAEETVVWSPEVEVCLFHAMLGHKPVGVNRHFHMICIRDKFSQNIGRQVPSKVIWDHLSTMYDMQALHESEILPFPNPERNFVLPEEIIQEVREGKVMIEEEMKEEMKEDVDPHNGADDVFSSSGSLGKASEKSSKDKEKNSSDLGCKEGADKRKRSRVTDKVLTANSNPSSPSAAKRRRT
UniProt Q9H0E9: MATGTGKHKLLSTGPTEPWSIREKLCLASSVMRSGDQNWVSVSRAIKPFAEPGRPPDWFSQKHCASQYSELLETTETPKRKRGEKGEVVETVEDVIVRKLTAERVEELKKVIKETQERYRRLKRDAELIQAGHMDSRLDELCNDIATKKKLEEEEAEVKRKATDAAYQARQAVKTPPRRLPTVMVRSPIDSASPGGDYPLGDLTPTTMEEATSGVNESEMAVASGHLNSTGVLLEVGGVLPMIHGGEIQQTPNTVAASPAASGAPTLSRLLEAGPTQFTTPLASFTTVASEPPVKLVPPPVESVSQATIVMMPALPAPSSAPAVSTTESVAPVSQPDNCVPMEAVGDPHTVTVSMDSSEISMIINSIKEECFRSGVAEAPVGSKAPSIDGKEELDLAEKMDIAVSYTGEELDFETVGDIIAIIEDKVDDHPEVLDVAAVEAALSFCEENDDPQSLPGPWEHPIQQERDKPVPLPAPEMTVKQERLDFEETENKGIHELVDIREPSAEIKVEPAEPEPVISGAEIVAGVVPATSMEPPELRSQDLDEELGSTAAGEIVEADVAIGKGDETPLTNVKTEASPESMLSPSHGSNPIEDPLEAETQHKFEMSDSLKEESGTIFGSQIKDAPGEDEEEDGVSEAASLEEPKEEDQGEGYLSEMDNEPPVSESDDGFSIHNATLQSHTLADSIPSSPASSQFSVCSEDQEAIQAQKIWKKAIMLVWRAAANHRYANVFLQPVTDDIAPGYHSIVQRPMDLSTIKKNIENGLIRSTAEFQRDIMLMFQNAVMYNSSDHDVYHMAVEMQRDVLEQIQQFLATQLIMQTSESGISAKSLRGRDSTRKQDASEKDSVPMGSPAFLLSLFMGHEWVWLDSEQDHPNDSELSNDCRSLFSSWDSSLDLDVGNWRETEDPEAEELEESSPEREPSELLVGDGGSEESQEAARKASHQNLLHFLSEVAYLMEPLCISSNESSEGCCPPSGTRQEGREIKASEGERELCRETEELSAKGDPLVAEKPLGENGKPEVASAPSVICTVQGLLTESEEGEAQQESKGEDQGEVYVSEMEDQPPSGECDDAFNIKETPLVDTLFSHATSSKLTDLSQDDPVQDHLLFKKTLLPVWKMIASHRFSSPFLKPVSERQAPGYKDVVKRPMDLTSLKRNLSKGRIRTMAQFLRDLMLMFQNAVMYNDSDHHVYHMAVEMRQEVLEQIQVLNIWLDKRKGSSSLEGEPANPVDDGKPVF

Experiments:
[1] = biological target: Myc/His-tagged MRGBP (MRG-binding protein, C20orf20), wild type (human) (UniProt Q9NV56); experiment: co-IP; immunoprecipitation experiment using BRD8 isoform 2 expression plasmid (Supplementary Figure 1A); cells and antibodies not given
[2] = biological target: endogenous MRGBP (human (endogenous in SW480)) (UniProt Q9NV56); experiment: co-IP; endogenous proteins; nuclear extract from SW480 cells with anti-MRGBP or anti-p120 (BRD8) antibody, Protein G-Sepharose overnight at 4°C; normal rabbit IgG as negative control

## BRD8 isoform 2 (from UniProt Q9H0E9 1-1235)
[1]
  binding: binds

## endogenous BRD8 (from UniProt Q9H0E9 1-1235)
[2]
  binding: binds
